{"source": "the supplement of paper PMC8256030", "key": {"[1]": {"tested_on": "SARS-CoV-2 -1 PRF reporter mCherry-FSE-GFP(-1)", "test": "mCherry (red) intensity as percent of control; higher = higher upstream reporter expression", "settings": "10 µM; 24 h; HEK293T"}, "[2]": {"tested_on": "SARS-CoV-2 -1 PRF reporter mCherry-FSE-GFP(-1)", "test": "percent effect, decrease of GFP/mCherry ratio (-1 PRF reporter) relative to controls; higher = stronger frameshift inhibition", "settings": "10 µM; 24 h; HEK293T"}}, "note": "The list shows a part of the results. Repeats in this data set agree poorly, so a single value says little.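 HEK293T cells were given each compound shortly before transfection with a reporter in which red mCherry is followed by the SARS-CoV-2 frameshift element and then GFP in the −1 frame, so GFP appears only after frameshifting.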", "data": [{"smiles": "CCCCOc1cc(C(=O)OCCN(CC)CC)ccc1N", "values": [{"measurement": "mCherry", "setting": "[1]", "result": 98.4, "unit": "%"}, {"measurement": "percent effect", "setting": "[2]", "result": -4.42, "unit": "%"}]}, {"smiles": "COc1c2occc2cc2ccc(=O)oc12", "values": [{"measurement": "mCherry", "setting": "[1]", "result": 111, "unit": "%"}, {"measurement": "percent effect", "setting": "[2]", "result": -1.26, "unit": "%"}]}, {"smiles": "C/C=C/C(=O)N(CC)C(CC)C(=O)N(C)C", "note": "(stereo not given) [crotetamide]", "values": [{"measurement": "mCherry", "setting": "[1]", "result": 92.4, "unit": "%"}, {"measurement": "percent effect", "setting": "[2]", "result": 3.78, "unit": "%"}]}, {"smiles": "Clc1ccc(CO/N=C(\\Cn2ccnc2)c2ccc(Cl)cc2Cl)c(Cl)c1", "values": [{"measurement": "mCherry", "setting": "[1]", "result": 137, "unit": "%"}, {"measurement": "percent effect", "setting": "[2]", "result": -0.903, "unit": "%"}]}, {"smiles": "NS(=O)(=O)c1cc(Cl)c(Cl)c(S(N)(=O)=O)c1", "note": "[diclofenamide]", "values": [{"measurement": "mCherry", "setting": "[1]", "result": 109, "unit": "%"}, {"measurement": "percent effect", "setting": "[2]", "result": -13.8, "unit": "%"}]}, {"smiles": "C[C@]1(Cn2ccnn2)[C@H](C(=O)O)N2C(=O)C[C@H]2S1(=O)=O", "note": "[tazobactam]", "values": [{"measurement": "mCherry", "setting": "[1]", "result": 97.3, "unit": "%"}, {"measurement": "percent effect", "setting": "[2]", "result": -3.47, "unit": "%"}]}, {"smiles": "CC[N+](CC)(CC)CCOC(=O)c1cc(OC)c(OC)c(OC)c1", "note": "[troxonium tosilate]", "values": [{"measurement": "mCherry", "setting": "[1]", "result": 74.7, "unit": "%"}, {"measurement": "percent effect", "setting": "[2]", "result": -9.2, "unit": "%"}]}, {"smiles": "C[C@@H](c1ncncc1F)[C@](O)(Cn1cncn1)c1ccc(F)cc1F", "note": "[voriconazole]", "values": [{"measurement": "mCherry", "setting": "[1]", "result": 90.6, "unit": "%"}, {"measurement": "percent effect", "setting": "[2]", "result": -2.94, "unit": "%"}]}, {"smiles": "COc1ccccc1Oc1c(NS(=O)(=O)c2ccc(C(C)(C)C)cc2)nc(-c2ncccn2)nc1OCCO", "note": "[bosentan]", "values": [{"measurement": "mCherry", "setting": "[1]", "result": 90.3, "unit": "%"}, {"measurement": "percent effect", "setting": "[2]", "result": 0.523, "unit": "%"}]}, {"smiles": "CCC(=O)OCC(=O)[C@@]1(OC(=O)CC)[C@@H](C)C[C@H]2[C@@H]3CCC4=CC(=O)C=C[C@]4(C)[C@@]3(F)[C@@H](O)C[C@@]21C", "values": [{"measurement": "mCherry", "setting": "[1]", "result": 115, "unit": "%"}, {"measurement": "percent effect", "setting": "[2]", "result": -4.08, "unit": "%"}]}]}
